Values from PubChem BioAssay AID1259308 (NCATS, 2017).
Here is an unselected part of about 59,000 reagents tested. In the full data, about 1,510 (2.6%) are marked active. 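Calls use total luciferase alone and ignore viability, so some active siRNAs may act by altering cell number.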 The numbers tell different reagents against one gene apart. Not all columns of the deposit are shown.

- Screen: 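Genes whose loss raises luciferase production in HEK293 cells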 (primary screen)
- Cells: human HEK293 embryonic kidney cells stably expressing firefly luciferase (HEK-CMV-Luc2-Hygro)
- Knock-down reagent: single siRNA against human genes, 0.8 pmol siRNA per well
- Time to read-out: 72 h
- Detection: 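Luciferase light (ONE-Glo) measured on one replicate plate set and viability (CellTiter-Glo) on the other, scaled to a negative control siRNA, with robust z-scores and luciferase per cell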
- Reading the numbers: total luciferase, z-score and total luciferase, % of control: higher = more reporter protein produced
- Active means: 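Active when the median/MAD z-score for overall luciferase is greater than 3; a gene was taken forward for validation with new siRNAs if at least two of its three siRNAs passed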
- Calls: active = raised luciferase; inactive = no rise

{"Target gene": "ATF7IP (activating transcription factor 7 interacting protein)", "siRNA no.": 1, "total luciferase, z-score": 2.59, "total luciferase, % of control": 133, "Outcome": "inactive"}
{"Target gene": "ATF7IP (activating transcription factor 7 interacting protein)", "siRNA no.": 2, "total luciferase, z-score": 2.33, "total luciferase, % of control": 128, "Outcome": "inactive"}
{"Target gene": "ATF7IP (activating transcription factor 7 interacting protein)", "siRNA no.": 3, "total luciferase, z-score": 0.772, "total luciferase, % of control": 97.2, "Outcome": "inactive"}
{"Target gene": "JMJD4 (jumonji domain containing 4)", "siRNA no.": 1, "total luciferase, z-score": -0.0985, "total luciferase, % of control": 79.9, "Outcome": "inactive"}
{"Target gene": "JMJD4 (jumonji domain containing 4)", "siRNA no.": 2, "total luciferase, z-score": -0.462, "total luciferase, % of control": 72.7, "Outcome": "inactive"}
{"Target gene": "JMJD4 (jumonji domain containing 4)", "siRNA no.": 3, "total luciferase, z-score": 0.00513, "total luciferase, % of control": 82, "Outcome": "inactive"}

Next part, starting with the last 2 of the part before.
{"Target gene": "JMJD4 (jumonji domain containing 4)", "siRNA no.": 2, "total luciferase, z-score": -0.462, "total luciferase, % of control": 72.7, "Outcome": "inactive"}
{"Target gene": "JMJD4 (jumonji domain containing 4)", "siRNA no.": 3, "total luciferase, z-score": 0.00513, "total luciferase, % of control": 82, "Outcome": "inactive"}
{"Target gene": "TUB (TUB bipartite transcription factor)", "siRNA no.": 1, "total luciferase, z-score": 0.434, "total luciferase, % of control": 90.5, "Outcome": "inactive"}
{"Target gene": "TUB (TUB bipartite transcription factor)", "siRNA no.": 2, "total luciferase, z-score": 0.15, "total luciferase, % of control": 84.9, "Outcome": "inactive"}
{"Target gene": "TUB (TUB bipartite transcription factor)", "siRNA no.": 3, "total luciferase, z-score": 0.476, "total luciferase, % of control": 91.3, "Outcome": "inactive"}
{"Target gene": "ZNF747 (zinc finger protein 747)", "siRNA no.": 1, "total luciferase, z-score": 0.966, "total luciferase, % of control": 101, "Outcome": "inactive"}
{"Target gene": "ZNF747 (zinc finger protein 747)", "siRNA no.": 2, "total luciferase, z-score": 2.19, "total luciferase, % of control": 125, "Outcome": "inactive"}
{"Target gene": "ZNF747 (zinc finger protein 747)", "siRNA no.": 3, "total luciferase, z-score": -0.282, "total luciferase, % of control": 76.3, "Outcome": "inactive"}
